Reference: PubChem BioAssay AID504793 (Drosophila RNAi Screening Center, 2011)
In all, the deposit lists about 23,000 reagents; below is an unselected part of those with a known target gene and a result. Of all reagents, 62 (0.27%) are marked active. 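Calls come from follow-up tests whose scores are not deposited, so confirmed genes may have low counts here; counts are not normalised per plate.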 Raw values vary from plate to plate and are shown uncorrected. Entries without a mark were called inactive. Names joined by + are all predicted targets of the reagent.

- Purpose: 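Whole-genome screen for parts of the DNA damage checkpoint at G2/M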 (primary screen)
- System: Drosophila S2R+ cells
- Reagents: long dsRNA against Drosophila genes, about 0.25 µg dsRNA per well
- Duration: 4 days of dsRNA, then 4 hours of drug before read-out
- Conditions: doxorubicin 0.5 µM for 4 hours to cause double-strand breaks, in cells also given a low, harmless dose of dsRNA against nbs to sensitise the assay
- Measurement: 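Mitotic index as the number of phospho-histone H3-positive cells in each well following doxorubicin, given as raw counts without normalisation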
- Scale: mitotic cells: higher = more cells in mitosis, weaker G2 arrest
- Rule for the call: 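Genes are called active only when high mitotic counts were reproduced with independent dsRNAs and mitosis was checked for delay without damage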
- Calls: active = confirmed in follow-up tests; inactive = not confirmed

gene knocked down	dsRNA	mitotic cells, replicate 1
CG12377 (retired record)	DRSC11671	5
CG12377 (retired record)	DRSC11672	3
Grp170 (Grp170 co-chaperone)	DRSC18524	6
Grp170 (Grp170 co-chaperone)	DRSC24799	7
CG16753	DRSC08489	5
DIP-kappa (Dpr-interacting protein kappa)	DRSC01336	3
DIP-kappa (Dpr-interacting protein kappa)	DRSC01337	5
Or94b (Odorant receptor 94b)	DRSC16773	8
Or94b (Odorant receptor 94b)	DRSC27188	2
mid (midline)	DRSC02977	9
mid (midline)	DRSC21493	19
mid (midline)	DRSC25557	1
CG32733 (retired record)	DRSC17481	2
CG32733 (retired record)	DRSC28689	2
CG10041	DRSC14179	9
CG10041	DRSC29505	4
CG2617	DRSC02712	3
CG2617	DRSC24947	4
nkt (noktochor)	DRSC10144	4
CG31867	DRSC03338	4
CG3600 (retired record)	DRSC18599	13
CG3600 (retired record)	DRSC25130	6
Cipc (Clock interacting protein circadian)	DRSC14898	3
Cipc (Clock interacting protein circadian)	DRSC14900	8
CG6931	DRSC10750	5
Atg2 (Autophagy-related 2)	DRSC08273	4
ProtB (Protamine B)	DRSC03373	2
ProtB (Protamine B)	DRSC27427	9
stai (stathmin)	DRSC22235	8
stai (stathmin)	DRSC28369	3
CG31817	DRSC01537	4
CG31817	DRSC01538	8
CG31817	DRSC22476	48
Ubr3 (Ubr3 ubiquitin ligase)	DRSC17987	6
Ubr3 (Ubr3 ubiquitin ligase)	DRSC17997	8
Ubr3 (Ubr3 ubiquitin ligase)	DRSC27473	6
Ubr3 (Ubr3 ubiquitin ligase)	DRSC29072	5
CG31482	DRSC12582	6
Lst (Limostatin)	DRSC07146	7
Lst (Limostatin)	DRSC29304	11
CG32195	DRSC09533	13
Cenp-C (Centromeric protein-C)	DRSC14371	10
Cenp-C (Centromeric protein-C)	DRSC29707	12
Atg7 (Autophagy-related 7)	DRSC05741	6
Atg7 (Autophagy-related 7)	DRSC06937	4
Unc-115b + p24-2	DRSC16492	12
CG10077	DRSC09691	7
CG10077	DRSC24756	7
Der-2 (Derlin-2)	DRSC15021	5
aln (allnighter)	DRSC08240	1
Crg-1 (Circadianly Regulated Gene)	DRSC22882	1
Crg-1 (Circadianly Regulated Gene)	DRSC29136	9
Spt6	DRSC18836	5
peg (pegasus)	DRSC15216	4
peg (pegasus)	DRSC26737	5
Bx42	DRSC17743	5
Bx42	DRSC27666	4
LysD (Lysozyme D)	DRSC26238	10
Eip78C (Ecdysone-induced protein 78C)	DRSC23097	9
SelT (Selenoprotein T)	DRSC02732	9
SelT (Selenoprotein T)	DRSC26033	5

The list goes on, starting with the last 3 of the part before.
gene knocked down	dsRNA	mitotic cells, replicate 1
Eip78C (Ecdysone-induced protein 78C)	DRSC23097	9
SelT (Selenoprotein T)	DRSC02732	9
SelT (Selenoprotein T)	DRSC26033	5
Bace (beta-site APP-cleaving enzyme)	DRSC02197	2
Bace (beta-site APP-cleaving enzyme)	DRSC28723	4
btv (beethoven)	DRSC01615	8
btv (beethoven)	DRSC02449	1
Cse1 (Chromosome segregation 1)	DRSC03287	13
Cse1 (Chromosome segregation 1)	DRSC26857	2
CG12362	DRSC09884	2
7B2	DRSC11991	3
Sf3a1 (Splicing factor 3a subunit 1)	DRSC15166	5
mRpS21 (mitochondrial ribosomal protein S21)	DRSC12965	8
mRpS21 (mitochondrial ribosomal protein S21)	DRSC21357	11
mRpS21 (mitochondrial ribosomal protein S21)	DRSC29842	7
Zasp66 (Z band alternatively spliced PDZ-motif protein 66)	DRSC08932	10
Zasp66 (Z band alternatively spliced PDZ-motif protein 66)	DRSC10631	10
Zasp66 (Z band alternatively spliced PDZ-motif protein 66)	DRSC10632	4
RhoGDI	DRSC10919	11
Culd (CUB and LDLa domain)	DRSC10262	8
CG6005	DRSC15945	8
Fbp1 (Fat body protein 1)	DRSC11166	5
Fbp1 (Fat body protein 1)	DRSC26593	9
CG9864	DRSC07346	7
CG9864	DRSC28765	13
Pde11 (Phosphodiesterase 11)	DRSC02028	7
Pde11 (Phosphodiesterase 11)	DRSC02460	5
Pde11 (Phosphodiesterase 11)	DRSC26665	7
spi (spitz)	DRSC03618	10
spi (spitz)	DRSC29414	4
CG11583	DRSC08202	12
CG11583	DRSC26394	14
CG7409	DRSC10842	4
CG7409	DRSC30043	10
CSN6 (COP9 signalosome subunit 6)	DRSC16593	21 (active)
Ir64a (Ionotropic receptor 64a)	DRSC09759	8
Ir64a (Ionotropic receptor 64a)	DRSC09760	6
CG7179	DRSC25007	7
squ (squash)	DRSC01549	2
CG2006	DRSC15412	21
CG17249	DRSC08517	7
CG7914	DRSC20068	10
CG7914	DRSC28931	4
CG4892	DRSC01937	4
Mtl (Mig-2-like)	DRSC16751	8
RhoGEF4 (Rho guanine nucleotide exchange factor 4)	DRSC11011	3
RhoGEF4 (Rho guanine nucleotide exchange factor 4)	DRSC26016	6
SpdS (Spermidine Synthase)	DRSC16408	5
Or74a (Odorant receptor 74a)	DRSC11245	9
CG14357	DRSC14820	2
CG14357	DRSC28685	8
Lcp65Ad	DRSC11211	6
Lcp65Ad	DRSC24630	8
